In publication PMC10684865:

Experiments:
[1] = molecular target: murine Notch1 ΔE form, HA tagged (murine); experiment: co-IP; 293 T cells transiently co-transfected with vectors for a Notch1 construct and TM2D3; TM2D3 found in the immunoprecipitate of the Notch1 construct; antibodies only 'as indicated' in the figure (Fig. 4b, c, f)
[2] = molecular target: murine Notch1 LNR form (lacks all the EGF repeats), HA tagged (murine); experiment: as above

- binding [1]: no binding
- binding [2]: binds
B1: FLAG-tagged TM2D3 variant 1 (transmembrane 2 domain containing 3) (protein, UniProt Q9BRN9 26-247)
chain: ILSGGEQSQALAQSIKDPGPTRTFTVVPRAAESTEIPPYVMKCPSNGLCSRLPADCIDCTTNFSCTYGKPVTFDCAVKPSVTCVDQDFKSQKNFIINMTCRFCWQLPETDYECTNSTSCMTVSCPRQRYPANCTVRDHVHCLGNRTFPKMLYCNWTGGYKWSTALALSITLGGFGADRFYLGQWREGLGKLFSFGGLGIWTLIDVLLIGVGYVGPADGSLYI

Results are given in words; binding and its absence hold for the method and conditions named. In cells and extracts the contact can be indirect. For some assays here: Binding can be weak; no strength is given. Where a sequence is shown, tags or fusion partners need not be part of it.
